Results on 24 targets are retold here after the supplement of paper PMC10849652.

Sequences of proteins named here, by UniProt entry; tags and fusion partners are left off. A change or cut given only in a name is not applied to a line headed by its entry.
UniProt P67870, whole entry, looked up: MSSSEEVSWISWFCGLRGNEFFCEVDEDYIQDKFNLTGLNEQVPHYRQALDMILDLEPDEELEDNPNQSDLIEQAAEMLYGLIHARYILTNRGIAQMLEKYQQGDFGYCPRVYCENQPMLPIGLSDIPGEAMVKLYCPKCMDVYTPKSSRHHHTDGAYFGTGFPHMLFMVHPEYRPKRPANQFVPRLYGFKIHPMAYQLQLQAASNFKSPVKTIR
UniProt P53634: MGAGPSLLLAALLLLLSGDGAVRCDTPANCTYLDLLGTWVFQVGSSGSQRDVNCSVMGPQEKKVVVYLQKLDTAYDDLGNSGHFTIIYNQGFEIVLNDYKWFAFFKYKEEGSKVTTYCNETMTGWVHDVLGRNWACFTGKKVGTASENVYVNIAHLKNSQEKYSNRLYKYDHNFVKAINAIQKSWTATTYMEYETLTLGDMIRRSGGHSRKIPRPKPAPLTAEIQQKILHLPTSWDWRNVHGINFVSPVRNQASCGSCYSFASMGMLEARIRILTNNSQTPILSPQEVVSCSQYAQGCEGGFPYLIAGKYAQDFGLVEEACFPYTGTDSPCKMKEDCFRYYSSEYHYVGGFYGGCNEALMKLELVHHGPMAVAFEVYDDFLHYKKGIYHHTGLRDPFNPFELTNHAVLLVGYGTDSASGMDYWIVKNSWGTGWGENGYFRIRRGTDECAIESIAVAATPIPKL
UniProt P49674: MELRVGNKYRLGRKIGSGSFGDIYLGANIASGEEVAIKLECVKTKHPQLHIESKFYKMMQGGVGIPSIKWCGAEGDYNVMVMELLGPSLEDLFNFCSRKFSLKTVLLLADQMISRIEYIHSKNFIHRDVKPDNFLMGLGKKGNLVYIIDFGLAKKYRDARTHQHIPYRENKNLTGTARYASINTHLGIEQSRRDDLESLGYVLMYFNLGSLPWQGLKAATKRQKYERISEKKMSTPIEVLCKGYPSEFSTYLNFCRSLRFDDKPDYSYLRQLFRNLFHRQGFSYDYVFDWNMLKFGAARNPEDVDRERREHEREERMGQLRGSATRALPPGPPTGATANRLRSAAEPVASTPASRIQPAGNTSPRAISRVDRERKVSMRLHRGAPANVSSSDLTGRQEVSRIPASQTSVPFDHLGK
UniProt P78368: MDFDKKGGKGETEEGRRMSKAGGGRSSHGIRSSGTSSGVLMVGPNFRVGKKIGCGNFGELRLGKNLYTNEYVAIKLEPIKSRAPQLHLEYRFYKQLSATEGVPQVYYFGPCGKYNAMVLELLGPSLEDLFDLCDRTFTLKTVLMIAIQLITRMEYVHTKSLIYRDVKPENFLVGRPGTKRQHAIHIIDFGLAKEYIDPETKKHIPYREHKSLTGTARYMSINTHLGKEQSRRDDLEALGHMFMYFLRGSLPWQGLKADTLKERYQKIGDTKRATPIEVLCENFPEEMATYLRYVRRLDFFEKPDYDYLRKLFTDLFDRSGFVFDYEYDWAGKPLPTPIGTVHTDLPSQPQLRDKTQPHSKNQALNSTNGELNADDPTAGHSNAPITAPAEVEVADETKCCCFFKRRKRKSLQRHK
UniProt Q8WYA6: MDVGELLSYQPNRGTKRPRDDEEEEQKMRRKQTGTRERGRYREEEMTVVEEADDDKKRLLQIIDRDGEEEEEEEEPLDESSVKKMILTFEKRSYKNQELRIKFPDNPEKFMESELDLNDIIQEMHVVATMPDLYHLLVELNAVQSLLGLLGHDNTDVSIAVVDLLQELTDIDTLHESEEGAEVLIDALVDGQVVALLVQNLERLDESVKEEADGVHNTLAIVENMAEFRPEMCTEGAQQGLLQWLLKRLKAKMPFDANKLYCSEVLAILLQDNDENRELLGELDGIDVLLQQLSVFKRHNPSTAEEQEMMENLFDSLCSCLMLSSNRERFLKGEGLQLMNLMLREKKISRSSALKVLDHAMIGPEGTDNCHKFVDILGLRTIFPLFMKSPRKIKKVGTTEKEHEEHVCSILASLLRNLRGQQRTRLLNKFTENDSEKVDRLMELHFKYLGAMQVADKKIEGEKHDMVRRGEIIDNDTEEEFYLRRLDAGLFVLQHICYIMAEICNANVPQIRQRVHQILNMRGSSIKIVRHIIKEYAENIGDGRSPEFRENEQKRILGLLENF
UniProt Q01459: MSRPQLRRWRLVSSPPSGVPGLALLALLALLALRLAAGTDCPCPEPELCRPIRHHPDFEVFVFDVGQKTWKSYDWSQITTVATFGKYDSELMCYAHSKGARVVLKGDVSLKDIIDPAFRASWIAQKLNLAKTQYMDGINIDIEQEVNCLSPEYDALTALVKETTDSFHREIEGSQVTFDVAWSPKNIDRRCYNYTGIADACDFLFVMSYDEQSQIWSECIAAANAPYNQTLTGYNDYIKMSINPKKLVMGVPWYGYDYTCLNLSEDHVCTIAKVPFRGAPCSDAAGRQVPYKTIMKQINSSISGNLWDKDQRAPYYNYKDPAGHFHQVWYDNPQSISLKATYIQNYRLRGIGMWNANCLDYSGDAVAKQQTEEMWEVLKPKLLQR
UniProt Q9P021, whole entry, looked up: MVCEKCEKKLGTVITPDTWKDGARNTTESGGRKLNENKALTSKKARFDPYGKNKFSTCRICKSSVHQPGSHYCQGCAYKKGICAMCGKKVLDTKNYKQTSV
UniProt Q13948: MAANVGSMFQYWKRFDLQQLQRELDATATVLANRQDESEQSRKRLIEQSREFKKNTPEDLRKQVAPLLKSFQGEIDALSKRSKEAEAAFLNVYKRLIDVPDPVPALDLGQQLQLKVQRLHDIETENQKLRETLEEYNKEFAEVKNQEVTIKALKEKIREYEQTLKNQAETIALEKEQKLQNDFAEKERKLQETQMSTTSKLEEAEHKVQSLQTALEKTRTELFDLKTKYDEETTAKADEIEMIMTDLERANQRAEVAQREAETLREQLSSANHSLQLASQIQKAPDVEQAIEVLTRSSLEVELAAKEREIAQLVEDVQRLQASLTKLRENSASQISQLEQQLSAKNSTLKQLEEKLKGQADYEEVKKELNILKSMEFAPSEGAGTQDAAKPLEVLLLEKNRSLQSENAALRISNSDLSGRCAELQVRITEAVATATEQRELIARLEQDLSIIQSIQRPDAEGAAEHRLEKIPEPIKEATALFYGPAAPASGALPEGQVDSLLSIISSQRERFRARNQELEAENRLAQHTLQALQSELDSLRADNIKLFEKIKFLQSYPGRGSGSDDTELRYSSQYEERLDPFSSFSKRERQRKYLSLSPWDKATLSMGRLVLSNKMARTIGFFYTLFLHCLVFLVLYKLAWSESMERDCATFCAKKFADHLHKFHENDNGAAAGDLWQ
UniProt P99999: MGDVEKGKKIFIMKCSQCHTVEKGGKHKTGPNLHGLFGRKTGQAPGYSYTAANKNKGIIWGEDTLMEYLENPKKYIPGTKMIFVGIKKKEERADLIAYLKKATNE
UniProt O60716: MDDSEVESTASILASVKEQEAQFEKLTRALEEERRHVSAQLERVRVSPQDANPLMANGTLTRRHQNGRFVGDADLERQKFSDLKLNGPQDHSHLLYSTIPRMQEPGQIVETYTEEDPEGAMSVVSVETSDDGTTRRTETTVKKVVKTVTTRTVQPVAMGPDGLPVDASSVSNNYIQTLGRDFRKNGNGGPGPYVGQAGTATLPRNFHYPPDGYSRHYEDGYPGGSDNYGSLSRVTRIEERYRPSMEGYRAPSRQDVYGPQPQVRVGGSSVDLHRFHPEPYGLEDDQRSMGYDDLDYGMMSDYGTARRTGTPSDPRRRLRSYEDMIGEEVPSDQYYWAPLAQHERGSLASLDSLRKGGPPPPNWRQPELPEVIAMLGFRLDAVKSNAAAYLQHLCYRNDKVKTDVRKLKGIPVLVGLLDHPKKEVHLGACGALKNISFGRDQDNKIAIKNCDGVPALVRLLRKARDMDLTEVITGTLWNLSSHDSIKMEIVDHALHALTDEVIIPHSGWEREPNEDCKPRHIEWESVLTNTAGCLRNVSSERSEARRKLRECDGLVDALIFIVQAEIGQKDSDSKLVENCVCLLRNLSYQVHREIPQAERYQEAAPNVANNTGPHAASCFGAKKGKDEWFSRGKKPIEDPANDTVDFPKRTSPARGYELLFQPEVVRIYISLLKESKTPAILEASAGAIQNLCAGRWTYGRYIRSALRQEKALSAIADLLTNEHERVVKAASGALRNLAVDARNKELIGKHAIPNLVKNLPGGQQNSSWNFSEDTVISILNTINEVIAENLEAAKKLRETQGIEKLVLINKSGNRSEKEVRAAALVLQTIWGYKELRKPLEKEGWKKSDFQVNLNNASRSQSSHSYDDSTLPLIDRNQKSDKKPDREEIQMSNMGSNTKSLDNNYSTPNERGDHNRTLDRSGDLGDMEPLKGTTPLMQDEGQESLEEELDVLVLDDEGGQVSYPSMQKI
UniProt P49447: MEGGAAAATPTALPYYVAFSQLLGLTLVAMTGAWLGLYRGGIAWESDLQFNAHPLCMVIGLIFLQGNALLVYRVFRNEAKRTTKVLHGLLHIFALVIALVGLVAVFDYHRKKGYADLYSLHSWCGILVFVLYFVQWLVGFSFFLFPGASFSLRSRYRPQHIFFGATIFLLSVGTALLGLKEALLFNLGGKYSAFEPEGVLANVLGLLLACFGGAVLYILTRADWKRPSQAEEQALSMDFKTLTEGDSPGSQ
UniProt Q6UW02: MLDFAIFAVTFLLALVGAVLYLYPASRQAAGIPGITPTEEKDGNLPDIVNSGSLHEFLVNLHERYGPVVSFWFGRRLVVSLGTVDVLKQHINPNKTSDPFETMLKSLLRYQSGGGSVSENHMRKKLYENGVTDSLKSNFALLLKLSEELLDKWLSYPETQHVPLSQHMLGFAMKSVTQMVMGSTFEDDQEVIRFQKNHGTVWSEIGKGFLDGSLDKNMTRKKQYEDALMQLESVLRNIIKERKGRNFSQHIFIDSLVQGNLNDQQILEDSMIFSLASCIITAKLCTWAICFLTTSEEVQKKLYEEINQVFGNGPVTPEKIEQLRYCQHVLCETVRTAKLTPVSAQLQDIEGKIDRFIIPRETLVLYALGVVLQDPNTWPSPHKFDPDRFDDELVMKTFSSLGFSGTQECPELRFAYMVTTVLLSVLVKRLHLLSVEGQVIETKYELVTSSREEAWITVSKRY
UniProt Q9UBR2: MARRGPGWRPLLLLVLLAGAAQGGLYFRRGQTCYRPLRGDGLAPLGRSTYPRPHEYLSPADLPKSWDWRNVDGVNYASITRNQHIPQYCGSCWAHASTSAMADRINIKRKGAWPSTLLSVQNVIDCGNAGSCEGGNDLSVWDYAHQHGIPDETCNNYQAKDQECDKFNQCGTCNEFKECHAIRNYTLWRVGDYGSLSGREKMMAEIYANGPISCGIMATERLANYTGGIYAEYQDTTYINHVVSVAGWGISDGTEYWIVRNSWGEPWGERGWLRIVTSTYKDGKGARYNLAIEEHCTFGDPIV
UniProt Q2NKJ3: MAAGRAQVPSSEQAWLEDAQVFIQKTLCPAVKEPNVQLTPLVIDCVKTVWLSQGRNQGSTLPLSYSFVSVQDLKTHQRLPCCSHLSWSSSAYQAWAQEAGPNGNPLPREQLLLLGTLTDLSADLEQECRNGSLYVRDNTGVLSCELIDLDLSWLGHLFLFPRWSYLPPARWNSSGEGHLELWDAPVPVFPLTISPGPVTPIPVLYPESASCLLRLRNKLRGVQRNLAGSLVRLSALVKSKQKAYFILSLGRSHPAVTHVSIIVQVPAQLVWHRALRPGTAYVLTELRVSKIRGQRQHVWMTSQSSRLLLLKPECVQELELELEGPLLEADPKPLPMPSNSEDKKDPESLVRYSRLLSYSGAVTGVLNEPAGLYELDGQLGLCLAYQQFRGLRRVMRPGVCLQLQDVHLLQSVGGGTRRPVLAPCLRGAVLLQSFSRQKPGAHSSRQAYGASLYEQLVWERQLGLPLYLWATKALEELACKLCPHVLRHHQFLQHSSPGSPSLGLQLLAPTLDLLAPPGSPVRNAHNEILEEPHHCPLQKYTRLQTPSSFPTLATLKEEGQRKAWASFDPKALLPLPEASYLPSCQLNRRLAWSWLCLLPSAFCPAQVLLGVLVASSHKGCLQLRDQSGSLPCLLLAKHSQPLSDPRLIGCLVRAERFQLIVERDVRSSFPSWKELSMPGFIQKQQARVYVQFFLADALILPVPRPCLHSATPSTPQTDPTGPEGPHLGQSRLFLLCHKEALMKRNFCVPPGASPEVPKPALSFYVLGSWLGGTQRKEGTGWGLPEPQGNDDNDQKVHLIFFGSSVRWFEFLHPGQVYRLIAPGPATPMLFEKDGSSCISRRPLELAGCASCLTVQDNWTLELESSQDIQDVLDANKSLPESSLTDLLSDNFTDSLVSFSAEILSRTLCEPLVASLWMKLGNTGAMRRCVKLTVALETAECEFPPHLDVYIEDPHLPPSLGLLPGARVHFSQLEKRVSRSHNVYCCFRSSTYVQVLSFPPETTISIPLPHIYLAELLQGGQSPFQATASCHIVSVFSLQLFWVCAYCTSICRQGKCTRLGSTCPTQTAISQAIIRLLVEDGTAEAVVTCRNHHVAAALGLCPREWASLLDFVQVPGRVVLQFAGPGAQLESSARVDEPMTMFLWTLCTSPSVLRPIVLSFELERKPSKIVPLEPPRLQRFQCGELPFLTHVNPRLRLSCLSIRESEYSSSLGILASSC

Experiment in all cases: log2 fold change, soluble protein after heating vs DMSO (PISA); higher = thermal stabilisation; K562 lysate, 10 uM; active = over 0.2 and 3.5 SD of the protein, either way, in both replicates (recomputed)
Compound in assay [1]: NCC(=O)Nc1ccc(-n2nc(C(F)(F)F)cc2-c2ccc3c(ccc4ccccc43)c2)cc1
The method, boiled down:
(§1)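 A 30 min treatment with 10 μM compound was applied to crude K562 extract at 1 mg/mL protein in PBS pH 7.4 with 1 mM MgCl2. Heating for 3 min spanned 48°C-58°C, after which aliquots were pooled, adjusted to 0.5% NP-40 at 4°C and spun at 21,000xg for 90 min. TMTpro 16plex LC-MS/MS of the supernatant, with channel sums equalised, gave values recorded as log-two fold change in thermal stability against solvent controls, from duplicates.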

Compound in a further assay: O=C(CCCCCCC(=O)Nc1ccccc1)NO [vorinostat]
In outline:
as §1

Compound in another assay: O=C(O)c1ccc2c(c1)nc(Nc1cccc(Cl)c1)c1ccncc12 [silmitasertib]
The method, boiled down:
as §1

Compound in assay [2]: O=C1NC(=O)C(c2cnc3ccccn23)=C1c1cn2c3c(cc(F)cc13)CN(C(=O)N1CCCCC1)CC2
In outline:
as §1

Compound in another assay: c1cn2cc(-c3ccc4cn[nH]c4c3)nc(Nc3ccc(N4CCOCC4)cc3)c2n1 [entospletinib]
The method, boiled down:
as §1

This is one part of the list.

As to CTF1 (UniProt Q16619), the log2 fold change was inactive: -0.153 in assay [1]; inactive: -0.042 in the assay with vorinostat; inactive: -0.039 in the assay with silmitasertib; inactive: 0.112 in assay [2]; inactive: -0.193 in the assay with entospletinib.

Take CSNK2B (UniProt P67870): the log2 fold change is inactive: 0.2 in assay [1]; inactive: -0.016 with vorinostat; active: 0.595 with silmitasertib; inactive: 0.023 in assay [2]; inactive: 0.241 with entospletinib.

As for CSNK2A2 (UniProt P19784), the log2 fold change in assay [1] was inactive: 0.383; with vorinostat, inactive: -0.105; in the assay with silmitasertib it was active: 0.879; in assay [2], inactive: -0.008; with entospletinib it was inactive: 0.466.

In the case of CTSC (UniProt P53634), the log2 fold change was inactive: 0 in assay [1]; inactive: 0.047 in the assay with vorinostat; inactive: 0.01 with silmitasertib; inactive: -0.004 in assay [2]; inactive: -0.007 in the assay with entospletinib.

In the case of CSNK1E (UniProt P49674), the log2 fold change was inactive: 0.016 in assay [1]; active: -0.419 with vorinostat; inactive: 0.206 with silmitasertib; inactive: 0.01 in assay [2]; inactive: 0.012 with entospletinib.

On to CSNK1G2 (UniProt P78368), for which the log2 fold change in assay [1] is inactive: -0.019; with vorinostat it was inactive: -0.029; with silmitasertib it was inactive: -0.06; in assay [2], inactive: -0.025; in the assay with entospletinib, inactive: 0.079.

CTNNBL1 (UniProt Q8WYA6): the log2 fold change in assay [1] was inactive: -0.026; with vorinostat, inactive: -0.046; in the assay with silmitasertib, inactive: -0.044; in assay [2] it was inactive: -0.025; with entospletinib, inactive: -0.011.

Consider CSE1L (UniProt P55060), for which the log2 fold change in assay [1] is inactive: -0.004; with vorinostat it was inactive: -0.103; in the assay with silmitasertib it was inactive: 0.021; in assay [2] it was inactive: -0.024; in the assay with entospletinib it was inactive: 0.032.

Regarding CTBS (UniProt Q01459), the log2 fold change is inactive: 0.072 in assay [1]; inactive: 0.123 with vorinostat; inactive: -0.017 in the assay with silmitasertib; inactive: 0.014 in assay [2]; inactive: 0 in the assay with entospletinib.

As for CYFIP2 (UniProt Q96F07), the log2 fold change in assay [1] was inactive: -0.04; with vorinostat it was inactive: -0.041; in the assay with silmitasertib, inactive: 0.015; in assay [2], inactive: 0.013; with entospletinib, inactive: 0.005.

Take CRIPT (UniProt Q9P021): the log2 fold change in assay [1] was inactive: -0.002; with vorinostat it was inactive: 0.128; with silmitasertib, inactive: 0.031; in assay [2], inactive: -0.011; in the assay with entospletinib, inactive: 0.015.

CUX1 isoform 2 (UniProt Q13948): the log2 fold change in assay [1] is inactive: -0.102; in the assay with vorinostat, inactive: 0.101; in the assay with silmitasertib, inactive: 0.086; in assay [2], inactive: 0.676; in the assay with entospletinib it was inactive: -0.077.

Consider CYCS (UniProt P99999), for which the log2 fold change is inactive: 0.017 in assay [1]; inactive: 0.114 with vorinostat; inactive: -0.004 with silmitasertib; inactive: 0.033 in assay [2]; inactive: 0.011 in the assay with entospletinib.

Consider CTNNA2 (UniProt P26232), for which the log2 fold change in assay [1] is inactive: 0.048; with vorinostat, inactive: -0.057; with silmitasertib, inactive: -0.015; in assay [2], inactive: 0.013; in the assay with entospletinib, inactive: -0.001.

For CTNND1 isoform 3 (UniProt O60716), the log2 fold change was inactive: -0.017 in assay [1]; active: -0.371 with vorinostat; inactive: 0.034 in the assay with silmitasertib; inactive: -0.014 in assay [2]; inactive: -0.005 with entospletinib.

Regarding CYB561 (UniProt P49447), the log2 fold change was inactive: 0.065 in assay [1]; inactive: -0.085 in the assay with vorinostat; inactive: -0.203 with silmitasertib; inactive: -0.008 in assay [2]; inactive: -0.05 in the assay with entospletinib.

For the target CYP20A1 (UniProt Q6UW02), the log2 fold change in assay [1] is inactive: -0.002; in the assay with vorinostat, inactive: 0.105; in the assay with silmitasertib, inactive: -0.016; in assay [2] it was inactive: -0.042; with entospletinib it was inactive: -0.004.

For CTSL (UniProt P07711), the log2 fold change was inactive: 0 in assay [1]; inactive: 0.121 with vorinostat; inactive: -0.044 in the assay with silmitasertib; inactive: 0.051 in assay [2]; inactive: 0.04 with entospletinib.

In the case of CUL7 isoform 2 (UniProt Q14999), the log2 fold change in assay [1] was inactive: -0.013; in the assay with vorinostat, inactive: -0.179; in the assay with silmitasertib, inactive: 0.077; in assay [2], inactive: -0.019; in the assay with entospletinib it was inactive: 0.043.

For CTR9 (UniProt Q6PD62), the log2 fold change in assay [1] is inactive: -0.023; in the assay with vorinostat, inactive: -0.088; with silmitasertib it was inactive: 0.016; in assay [2], inactive: -0.029; with entospletinib it was inactive: 0.024.

In the case of CRBN (UniProt Q96SW2), the log2 fold change was inactive: 0.006 in assay [1]; inactive: -0.063 in the assay with vorinostat; inactive: -0.01 with silmitasertib; inactive: 0.024 in assay [2]; inactive: 0.012 with entospletinib.

Regarding CTSZ (UniProt Q9UBR2), the log2 fold change was inactive: 0.027 in assay [1]; inactive: 0.14 in the assay with vorinostat; inactive: 0.029 with silmitasertib; inactive: 0.013 in assay [2]; inactive: -0.016 with entospletinib.

With CRTC2 (UniProt Q53ET0), the log2 fold change in assay [1] was inactive: 0.093; with vorinostat, inactive: -0.08; with silmitasertib, inactive: -0.047; in assay [2], inactive: 0.015; with entospletinib it was inactive: -0.011.

CTC1 (UniProt Q2NKJ3): the log2 fold change in assay [1] is inactive: 0.05; with vorinostat, inactive: -0.302; with silmitasertib, inactive: 0.149; in assay [2], inactive: 0.084; with entospletinib it was inactive: 0.116.
